Assay results as given in publication PMC8961175.
Where two headings read alike, the source gives them in different places. No constants are given. Whether binding was seen depends on the method and setting. Binding seen in cells or lysates may run through a third protein. These calls come from enrichment with a bait or labelling near it, and not all partners need be listed. Sequences can lack the tags named with a protein. One block for each molecule: values may come before it.

The chains behind the UniProt entries cited, without tags or fusion partners.
UniProt P49841: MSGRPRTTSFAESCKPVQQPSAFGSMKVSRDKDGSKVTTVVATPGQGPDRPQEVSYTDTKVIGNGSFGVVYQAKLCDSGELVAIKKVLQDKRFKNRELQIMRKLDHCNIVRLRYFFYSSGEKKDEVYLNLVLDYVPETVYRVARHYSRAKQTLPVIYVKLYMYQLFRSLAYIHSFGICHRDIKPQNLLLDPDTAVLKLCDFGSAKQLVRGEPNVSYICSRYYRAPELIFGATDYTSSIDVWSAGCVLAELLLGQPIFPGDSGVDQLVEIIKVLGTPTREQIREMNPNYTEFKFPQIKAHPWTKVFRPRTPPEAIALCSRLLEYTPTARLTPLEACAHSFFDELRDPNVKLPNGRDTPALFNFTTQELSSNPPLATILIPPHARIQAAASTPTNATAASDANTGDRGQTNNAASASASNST

What was measured:
[1] = target: T1, Flag-eEF2K (eukaryotic elongation factor 2 kinase) (UniProt O00418); assay: affinity purification with mass spectrometry; proteins immunoprecipitated by anti-Flag antibody, separated by PAGE, silver stained and analysed by mass spectrometry; cells not given
T1 sequence: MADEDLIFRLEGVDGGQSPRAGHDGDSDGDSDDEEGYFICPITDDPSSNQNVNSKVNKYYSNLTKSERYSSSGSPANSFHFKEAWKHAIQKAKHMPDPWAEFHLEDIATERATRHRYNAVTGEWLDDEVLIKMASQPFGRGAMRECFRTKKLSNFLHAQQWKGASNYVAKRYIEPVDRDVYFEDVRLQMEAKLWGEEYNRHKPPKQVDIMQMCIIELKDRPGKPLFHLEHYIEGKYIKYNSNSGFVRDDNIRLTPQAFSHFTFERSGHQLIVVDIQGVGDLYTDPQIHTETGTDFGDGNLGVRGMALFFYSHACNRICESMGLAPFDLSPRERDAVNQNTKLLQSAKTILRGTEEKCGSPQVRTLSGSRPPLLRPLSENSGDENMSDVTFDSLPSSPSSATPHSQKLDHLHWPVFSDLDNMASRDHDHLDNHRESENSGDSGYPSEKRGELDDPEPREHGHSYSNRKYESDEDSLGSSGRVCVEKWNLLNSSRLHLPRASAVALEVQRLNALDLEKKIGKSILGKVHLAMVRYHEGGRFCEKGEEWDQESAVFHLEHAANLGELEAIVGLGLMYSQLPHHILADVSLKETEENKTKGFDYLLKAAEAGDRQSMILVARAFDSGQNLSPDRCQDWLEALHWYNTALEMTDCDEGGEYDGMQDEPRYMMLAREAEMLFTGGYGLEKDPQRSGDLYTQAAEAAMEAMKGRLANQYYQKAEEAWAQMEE

[2] = target: T1, Flag-eEF2K (eukaryotic elongation factor 2 kinase); assay: as above; remark: listed apart in the source

binding [1]: binds
Molecule: GSK3β found in the IP-MS of eEF2K (from UniProt P49841 1-420) (enzyme)

binding [2]: binds
B1: Homer1 (protein, UniProt Q86YM7 1-354)
chain: MGEQPIFSTRAHVFQIDPNTKKNWVPTSKHAVTVSYFYDSTRNVYRIISLDGSKAIINSTITPNMTFTKTSQKFGQWADSRANTVYGLGFSSEHHLSKFAEKFQEFKEAARLAKEKSQEKMELTSTPSQESAGGDLQSPLTPESINGTDDERTPDVTQNSEPRAEPTQNALPFSHSSAISKHWEAELATLKGNNAKLTAALLESTANVKQWKQQLAAYQEEAERLHKRVTELECVSSQANAVHTHKTELNQTIQELEETLKLKEEEIERLKQEIDNARELQEQRDSLTQKLQEVEIRNKDLEGQLSDLEQRLEKSQNEQEAFRNNLKTLLEILDGKIFELTELRDNLAKLLECS
